Results are given in words; binding and its absence hold for the method and conditions named.
Molecular target: GST alone
Experiment: GST pull-down of in vitro translated 35S-ERRL1, SDS-PAGE and autoradiography

binding: no binding
B1: ERRL1 (ERR ligand 1), mouse (ligand)
chain: MAGNDCGALLDEELSSFFLNYLSDTQGGDSGEEQLCADLPELDLSQLDASDFDSATCFGELQWCPETSETEPSQYSPDDSELFQIDSENEALLAALTKTLDDIPEDDVGLAAFPELDEGDTPSCTPASPAPLSAPPSPTLERLLSPASDVDELSLLQKLLLATSSPTASSDALKDGATWSQTSLSSRSQRPCVKVDGTQDKKTPTLRAQSRPCTELHKHLTSVLPCPRVKACSPTPHPSPRLLSKEEEEEVGEDCPSPWLTPASPQDSLAQDTASPDSAQPPEEDVRAMVQLIRYMHTYCLPQRKLPQRAPEPIPQACSSLSRQVQPRSRHPPKAFWTEFSILRELLAQDILCDVSKPYRLAIPVYASLTPQSRPRPPKDSQASPAHSAMAEEVRITASPKSTGPRPSLRPLRLEVKRDVNKPTRQKREEDEEEEEEEEEEEEEKEEEEEEWGRKRPGRGLPWTKLGRKMDSSVCPVRRSRRLNPELGPWLTFTDEPLGALPSMCLDTETHNLEEDLGSLTDSSQGRQLPQGSQIPALESPCESGCGDTDEDPSCPQPTSRDSSRCLMLALSQSDSLGKKSFEESLTVELCGTAGLTPPTTPPYKPMEEDPFKPDTKLSPGQDTAPSLPSPEALPLTATPGASHKLPKRHPERSELLSHLQHATTQPVSQAGQKRPFSCSFGDHDYCQVLRPEAALQRKVLRSWEPIGVHLEDLAQQGAPLPTETKAPRREANQNCDPTHKDSMQLRDHEIRASLTKHFGLLETALEGEDLASCKSPEYDTVFEDSSSSSGESSFLLEEEEEEEEGGEEDDEGEDSGVSPPCSDHCPYQSPPSKASRQLCSRSRSSSGSSSCSSWSPATRKNFRRESRGPCSDGTPSVRHARKRREKAIGEGRVVYIRNLSSDMSSRELKKRFEVFGEIVECQVLTRSKRGQKHGFITFRCSEHAALSVRNGATLRKRNEPSFHLSYGGLRHFRWPRYTDYDPTSEESLPSSGKSKYEAMDFDSLLKEAQQSLH

— US20060174355A1
